Experimental data as given in patent US8921362B2, “6,7-dialkoxy quinazoline derivatives and methods of treating drug resistant and other tumors” (Natco Pharma Limited, priority 2008, dated 2014).
“Also recorded” adds a separate entry of the source. At least one structure is not confirmed: it was looked up by name or label, or the drawing left a doubt.

Test system: H1975 cells
Assay: Erlotinib/Gefitinib resistant NSCLC xenografts
Assay type: in vivo, athymic nude mice
Details: 10, 20, 40 mg/kg oral; compared to Erlotinib 100 mg/kg or control

## C#Cc1cccc(Nc2ncnc3cc(OC)c(OCCCN4CCOCC4)cc23)c1 [NRC-2694, N-(3-ethynylphenyl)-7-methoxy-6-[3-(4-morpholinyl)propoxy]-4-quinazolinamine]
  anticancer activity / tumor volume: significant anticancer activity; also recorded: dose dependent decrease in the tumor volume
